Microarray screen: hit calls

Calls as published in the ROBIN set (doi:10.1002/anie.202211358).

Oligonucleotides screened, 5′ to 3′:
SAM-II: SAM-II riboswitch RNA pseudoknot, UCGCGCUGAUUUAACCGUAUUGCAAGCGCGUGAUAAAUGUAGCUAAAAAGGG. About 200 hits among about 21,000 compounds.
TPP: TPP riboswitch RNA three-way junction, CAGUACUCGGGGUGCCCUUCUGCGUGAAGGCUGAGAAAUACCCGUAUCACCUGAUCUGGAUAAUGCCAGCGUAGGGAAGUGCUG. About 160 hits among about 24,000 compounds.
PreQ1: PreQ1 riboswitch RNA pseudoknot, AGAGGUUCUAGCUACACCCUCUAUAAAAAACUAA. From B. subtilis. About 170 hits among about 24,000 compounds.

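Each compound is printed as two spots on a slide made to bind it covalently, so it has no test concentration; the read-out is fluorescence of the bound, labelled oligonucleotide. The data file lists only calls. An earlier report of the laboratory on the PreQ1, TPP and SAM-II riboswitches (doi:10.1038/s41467-019-09493-3) used 1 µM RNA for 2 h and required a mean Z-score above 3 (spot signal-to-noise against the whole library), a score well above that on a control array, and duplicate spots agreeing (coefficient of variation under 100); it then also set aside compounds that hit other targets, which this list keeps. The cut-offs behind this list may differ. The calls come from the array alone, and fixing a compound to the slide can hide its binding.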 “active” means called a hit, “inactive” means screened and not called a hit. Compounds were drawn at random from those tested, without regard to their results. A target missing from an entry has no call listed here. A dash means that no call is listed here.

| # | SMILES | SAM-II | TPP | PreQ1 |
|---|---|---|---|---|
| 1 | `CCCCSc1nc(N)cc(NC[C@@H]2C[C@H](F)CN2)n1` | inactive | inactive | inactive |
| 2 | `COc1ccc2cc3c(N)nn(C(=O)Cn4c(=O)oc5ccccc54)c3nc2c1` | inactive | inactive | inactive |
| 3 | `Cc1noc(C)c1Cn1nc(C2CCCNC2)n(-c2ccccc2)c1=O` (centres unmarked) | inactive | inactive | inactive |
| 4 | `COc1ccc(C(O)C(=O)NCc2cccnc2N2CCN(C)CC2)cc1` (centres unmarked) | inactive | inactive | inactive |
| 5 | `CCC(=O)c1ccc(OCc2nc(N)nc(N3CCOCC3)n2)cc1` | inactive | inactive | inactive |
| 6 | `Cc1c(C#N)c2n(c1C)CCCC(=O)N2` | inactive | inactive | inactive |
| 7 | `Cn1c(=O)c2c(nc(NCc3ccccc3)n2Cc2ccccc2)n(C)c1=O` | inactive | inactive | inactive |
| 8 | `O=C(NCCNC(=O)C1CCCNC1)c1cccnc1` (centres unmarked) | inactive | inactive | inactive |
| 9 | `Cc1cccc(NC2=C(C(N)=O)S(=O)(=O)c3ccccc32)c1` | - | inactive | inactive |
| 10 | `CCOC(=O)C1(C(F)(F)F)C(C#N)=C(N)Nc2cc(-c3ccc(Cl)cc3)nn21` (centres unmarked) | inactive | inactive | inactive |
| 11 | `Cc1cc(C)n(CC2(CNCc3cc(O)c4cc(F)ccc4n3)CC2)n1` | inactive | inactive | inactive |
| 12 | `Nc1cccc(-c2nc3ccccc3o2)c1` | inactive | inactive | inactive |
| 13 | `Cc1ccc2c(c1)c1c(n2CC(O)CNc2ccccc2)CCCC1` (centres unmarked) | inactive | inactive | inactive |
| 14 | `CCC(CO)NC(=O)c1c(O)nc2cc(C)ccn2c1=O` (centres unmarked) | inactive | inactive | inactive |
| 15 | `c1cncc(CNCc2ccc(OCc3ccc4c(c3)OCCO4)cc2)c1` | inactive | inactive | inactive |
| 16 | `CCN(CC)S(=O)(=O)c1ccc(Nc2nc3ccc(Cl)cc3n3cnnc23)cc1` | inactive | inactive | inactive |
| 17 | `O=C(Nc1ccccc1)N1CC[C@@H](c2ccc3c(c2)OCO3)[C@H](O)C1` | inactive | inactive | inactive |
| 18 | `Cc1nc(C)n(CCNC(=O)c2cccc(C3CCCNC3)c2)n1` (centres unmarked) | inactive | inactive | inactive |
| 19 | `Cn1ncc2c(N3CCN(CCCCO)CC3)nc(C3CCCC3)nc21` | inactive | inactive | inactive |
| 20 | `Cc1c(C)c2c(c(C)c1O)CCC(C)(COc1ccc(CC3SC(=O)NC3=O)cc1)O2` (centres unmarked) | inactive | inactive | inactive |
| 21 | `O=C1C=C(NC2CCCC2)CC(c2ccccc2)C1` (centres unmarked) | inactive | inactive | inactive |
| 22 | `COc1cc(C)cc(-c2cnn(CCO)c2)c1OC` | inactive | inactive | inactive |
| 23 | `Nc1cc2c(cc1N1CCCC1=O)OCO2` | inactive | inactive | inactive |
| 24 | `CCCCn1cnc2cc(NCc3ccc(OCC)cc3)ccc21` | inactive | inactive | inactive |
| 25 | `CC1=C(CCN2CC[C@@H](NC(=O)c3ccncc3)[C@H](O)C2)C(C)(C)CCC1` | inactive | inactive | inactive |
| 26 | `C=CCOC(=O)C1=C(C)OC(N)=C(C#N)C12C(=O)N(CC=C)c1ccccc12` (centres unmarked) | inactive | inactive | inactive |
| 27 | `CN1C(=O)CC(C(=O)NCC(O)c2ccccc2)C1c1ccccc1` (centres unmarked) | - | inactive | inactive |
| 28 | `COc1ccc(NC2=NS(=O)(=O)C(c3ccc(C)c(C)c3)=C2C)c(OC)c1` | - | inactive | inactive |
| 29 | `Cn1ncc2c(Nc3cccc(Cl)c3)nc(Nc3cccc(Cl)c3)nc21` | inactive | inactive | inactive |
| 30 | `CSc1nc(N)cc(N2CC[C@@]3(O)CCN(C(=O)N4CCCC4)C[C@H]3C2)n1` | inactive | inactive | inactive |
| 31 | `CCOC(=O)c1cnc2c(C(F)(F)F)cccc2c1NCc1ccco1` | inactive | inactive | inactive |
| 32 | `CCOC(=O)c1c(N)nc2n1CCCC2` | inactive | inactive | inactive |
| 33 | `O=C(O)c1ccccc1-c1ccccc1C(=O)Nc1ccc2c(c1)[nH]c(=O)c1ccccc12` | inactive | inactive | inactive |
| 34 | `Cn1c(CN2CCC(O)CC2)nnc1C1CCN(Cc2cscn2)CC1` | inactive | inactive | inactive |
| 35 | `O=C(Nc1cccc(C(F)(F)F)c1)N1CC[C@H]2NCCC[C@]2(CO)C1` | inactive | inactive | inactive |
| 36 | `N#C[C@@H]1C[C@@H]2C[C@@H]2N1C(=O)[C@@H](N)C12CC3CC(CC(O)(C3)C1)C2` | inactive | inactive | inactive |
| 37 | `CC1(C)CCC(CN2CCN(c3ccc(C(=O)NS(=O)(=O)c4ccc(NCC5CCOCC5)c([N+](=O)[O-])c4)c(Oc4cnc5[nH]ccc5c4)c3)CC2)=C(c2ccc(Cl)cc2)C1` | inactive | inactive | inactive |
| 38 | `COc1cc(-c2nc3ncccn3c2Nc2cc(C)ccc2C)ccc1O` | inactive | inactive | inactive |
| 39 | `Cc1ccc2c(c1)c1c(n2CCc2ccc(C)nc2)CCN(C)C1` | inactive | inactive | inactive |
| 40 | `CC(C)(O)C#Cc1cccc(C(=O)NCC(O)c2ccccc2Cl)c1` (centres unmarked) | inactive | inactive | inactive |
| 41 | `COc1ccc(Oc2cc(F)nc(N)n2)cc1` | inactive | inactive | inactive |
| 42 | `Cn1c(NCCc2ccccc2)nc2c1c(=O)n(Cc1ccccc1)c(=O)n2C` | inactive | inactive | inactive |
| 43 | `C=CCOC(=O)C1=C(C)OC(N)=C(C(=O)OC)C12C(=O)Nc1ccc(Br)cc12` (centres unmarked) | inactive | inactive | inactive |
| 44 | `COc1cc(N)c(C#N)cc1OC` | - | inactive | inactive |
| 45 | `CCOC(=O)c1c(NC2=NS(=O)(=O)c3ccccc32)sc(C)c1C` | inactive | inactive | inactive |
| 46 | `CC(C)Oc1cccc(-c2cccc(C(C)O)n2)c1` (centres unmarked) | inactive | inactive | inactive |
| 47 | `COc1cc(Cl)cc2cc(-c3nc(CCSC)nn3CCO)oc12` | inactive | inactive | inactive |
| 48 | `Cc1cc(-c2nnc3n2CCCCC3)c(C)n1-c1ccccc1` | inactive | inactive | inactive |
| 49 | `N#CC1=C(N)OC2=C(C1c1cccc(Cl)c1)S(=O)(=O)N(Cc1ccccc1)c1ccccc12` (centres unmarked) | - | inactive | inactive |
| 50 | `CC12CN3CC(C)(CN(C1)C3c1ccc(N)cc1)C2O` (centres unmarked) | - | inactive | inactive |
| 51 | `COC(=O)c1cc(C)nc2c(C)cc3[nH]c4ccccc4c3c12` | inactive | inactive | inactive |
| 52 | `CC(C)[C@H]1CN(c2nccc(N)n2)C[C@@H]1NC(=O)C1(C)CCNCC1` | inactive | inactive | inactive |
| 53 | `N#Cc1ccnc(-c2ccccc2CO)c1` | inactive | inactive | inactive |
| 54 | `CCn1cnc2cc(NCc3ccc(OC)c(OC)c3)ccc21` | inactive | inactive | inactive |
| 55 | `NC(CCc1ccccn1)C(=O)O` (centres unmarked) | inactive | inactive | inactive |
| 56 | `COc1ccc(C)cc1S(=O)(=O)N1CCN(c2cc(C)nc(Nc3ccc(C)cc3)n2)CC1` | - | inactive | inactive |
| 57 | `O=C([C@H]1[C@@H]2CNC[C@@H]21)N1CCN(Cc2ccc(F)cc2)CC1` | inactive | inactive | inactive |
| 58 | `CSc1ccc(CN2C[C@@H](CN3CCCN(C)CC3)[C@@H](CO)C2)cc1` | inactive | inactive | inactive |
| 59 | `CCCC(Nc1nc(-c2cccnc2)nc2c1CCNC2)c1cccs1` (centres unmarked) | active | inactive | inactive |
| 60 | `O=C(c1ccc(Cn2cnnn2)cc1)N1CCNC(c2ccccc2)C1` (centres unmarked) | inactive | inactive | inactive |
| 61 | `N#CC1=C(N)OC2=C(C(=O)CCC2)C1c1ccc(OC(=O)N2CCOCC2)cc1` (centres unmarked) | inactive | inactive | inactive |
| 62 | `NC1=N[C@@]2(c3cc(NC(=O)c4ccc(F)cn4)ccc3F)COC[C@@H]2CS1` | inactive | inactive | inactive |
| 63 | `COc1cccc(CNCc2c(F)cccc2F)c1OC` | inactive | inactive | inactive |
| 64 | `CCN(CC)Cc1cc(NC2=NS(=O)(=O)c3ccccc32)ccc1OC(=O)C(C)C` | inactive | inactive | inactive |
| 65 | `Nc1nnc(-c2cccnc2)s1` | inactive | inactive | inactive |
| 66 | `c1cncc(N2CCN(CC3CCCNC3)CC2)c1` (centres unmarked) | inactive | inactive | inactive |
| 67 | `COc1ccccc1NC1=NS(=O)(=O)c2ccccc21` | inactive | inactive | inactive |
| 68 | `Cc1ccc(C)c(CC(=O)N2C[C@H](C3CC3)[C@@H](N)C2)c1` | inactive | inactive | inactive |
| 69 | `CC(=O)N1CCC(N[C@@H]2CC[C@@H]2NC(=O)CCn2c(C)cccc2=O)CC1` | inactive | inactive | inactive |
| 70 | `N=C(N)Nc1nc2cc([N+](=O)[O-])ccc2[nH]1` | inactive | inactive | inactive |
| 71 | `CCC(=O)N1CCN(c2ccc(Nc3c(CC)c(C)nc4ncnn34)cc2Cl)CC1` | inactive | inactive | inactive |
| 72 | `COc1ccc(Nc2cc(C)nc3c(-c4ccc(F)cc4)c(C)nn23)cc1` | - | inactive | inactive |
| 73 | `Nc1ccnc2c(Br)cccc12` | inactive | inactive | inactive |
| 74 | `COC(=O)c1n[nH]cc1N` | inactive | inactive | inactive |
| 75 | `Cc1ccc2nc3c(c(N)c2c1)CCN3c1ccccc1.O=C(O)C(=O)O` | inactive | inactive | inactive |

For reference, 5 entries once more:

{"smiles": "Cc1cc(C)n(CC2(CNCc3cc(O)c4cc(F)ccc4n3)CC2)n1", "SAM-II": "inactive", "TPP": "inactive", "PreQ1": "inactive"}
{"smiles": "N#C[C@@H]1C[C@@H]2C[C@@H]2N1C(=O)[C@@H](N)C12CC3CC(CC(O)(C3)C1)C2", "SAM-II": "inactive", "TPP": "inactive", "PreQ1": "inactive"}
{"smiles": "O=C([C@H]1[C@@H]2CNC[C@@H]21)N1CCN(Cc2ccc(F)cc2)CC1", "SAM-II": "inactive", "TPP": "inactive", "PreQ1": "inactive"}
{"smiles": "CCC(=O)c1ccc(OCc2nc(N)nc(N3CCOCC3)n2)cc1", "SAM-II": "inactive", "TPP": "inactive", "PreQ1": "inactive"}
{"smiles": "CCn1cnc2cc(NCc3ccc(OC)c(OC)c3)ccc21", "SAM-II": "inactive", "TPP": "inactive", "PreQ1": "inactive"}